Reference: patent US20240301319A1, “PERFUMING COMPOSITIONS” (FIRMNICH SA, priority 2017, published 2024)

Experiment: Volatility of perfuming compounds (Tables 4 to 10), with top/middle/bottom note type
Assay type: physicochemical
Settings: for Type: note type by volatility
Procedure: In some aspects, the first perfume accord comprises perfuming compounds having a volatility ranging from 70,000 to 100 μg/l in air. In some aspects, perfuming compounds having a volatility ranging from 70,000 to 100 μg/l in air are referred to as “top notes”.
In some aspects, the second perfume accord comprises perfuming compounds having a volatility ranging from 99 to 50 μg/l in air. In some aspects, perfuming compounds having a volatility ranging from 99 to 50 μg/l in air are referred to as “middle notes”.
In some aspects, the third perfume accord comprises perfuming compounds having a volatility ranging from 49 to 0.1 μg/l in air. In some aspects, perfuming compounds having a volatility ranging from 49 to 0.1 μg/l in air are referred to as “bottom notes”.
Tables 4 to 10 describe top, middle and bottom note perfuming compounds for watery, green, fruity, citrus, sweet, gourmand and woody notes respectively.

[1] = Table 6, perfuming compounds having a fruity note

Volatility [1]: 1530.76 μg/l air | Type (Table 10, perfuming compounds having a woody note): Top | Volatility (Table 10, woody note): 1530.76 μg/l air
SMILES: CC(C)CC(=O)O [3-METHYLBUTANOIC ACID]
Type [1]: TOP (perfuming compounds having a volatility ranging from 70,000 to 100 μg/l in air are referred to as “top notes”)
